Here are results for two molecules from publication PMC7555428.

Chains of the proteins cited; added tags and fusions are not shown.
UniProt Q9Z330: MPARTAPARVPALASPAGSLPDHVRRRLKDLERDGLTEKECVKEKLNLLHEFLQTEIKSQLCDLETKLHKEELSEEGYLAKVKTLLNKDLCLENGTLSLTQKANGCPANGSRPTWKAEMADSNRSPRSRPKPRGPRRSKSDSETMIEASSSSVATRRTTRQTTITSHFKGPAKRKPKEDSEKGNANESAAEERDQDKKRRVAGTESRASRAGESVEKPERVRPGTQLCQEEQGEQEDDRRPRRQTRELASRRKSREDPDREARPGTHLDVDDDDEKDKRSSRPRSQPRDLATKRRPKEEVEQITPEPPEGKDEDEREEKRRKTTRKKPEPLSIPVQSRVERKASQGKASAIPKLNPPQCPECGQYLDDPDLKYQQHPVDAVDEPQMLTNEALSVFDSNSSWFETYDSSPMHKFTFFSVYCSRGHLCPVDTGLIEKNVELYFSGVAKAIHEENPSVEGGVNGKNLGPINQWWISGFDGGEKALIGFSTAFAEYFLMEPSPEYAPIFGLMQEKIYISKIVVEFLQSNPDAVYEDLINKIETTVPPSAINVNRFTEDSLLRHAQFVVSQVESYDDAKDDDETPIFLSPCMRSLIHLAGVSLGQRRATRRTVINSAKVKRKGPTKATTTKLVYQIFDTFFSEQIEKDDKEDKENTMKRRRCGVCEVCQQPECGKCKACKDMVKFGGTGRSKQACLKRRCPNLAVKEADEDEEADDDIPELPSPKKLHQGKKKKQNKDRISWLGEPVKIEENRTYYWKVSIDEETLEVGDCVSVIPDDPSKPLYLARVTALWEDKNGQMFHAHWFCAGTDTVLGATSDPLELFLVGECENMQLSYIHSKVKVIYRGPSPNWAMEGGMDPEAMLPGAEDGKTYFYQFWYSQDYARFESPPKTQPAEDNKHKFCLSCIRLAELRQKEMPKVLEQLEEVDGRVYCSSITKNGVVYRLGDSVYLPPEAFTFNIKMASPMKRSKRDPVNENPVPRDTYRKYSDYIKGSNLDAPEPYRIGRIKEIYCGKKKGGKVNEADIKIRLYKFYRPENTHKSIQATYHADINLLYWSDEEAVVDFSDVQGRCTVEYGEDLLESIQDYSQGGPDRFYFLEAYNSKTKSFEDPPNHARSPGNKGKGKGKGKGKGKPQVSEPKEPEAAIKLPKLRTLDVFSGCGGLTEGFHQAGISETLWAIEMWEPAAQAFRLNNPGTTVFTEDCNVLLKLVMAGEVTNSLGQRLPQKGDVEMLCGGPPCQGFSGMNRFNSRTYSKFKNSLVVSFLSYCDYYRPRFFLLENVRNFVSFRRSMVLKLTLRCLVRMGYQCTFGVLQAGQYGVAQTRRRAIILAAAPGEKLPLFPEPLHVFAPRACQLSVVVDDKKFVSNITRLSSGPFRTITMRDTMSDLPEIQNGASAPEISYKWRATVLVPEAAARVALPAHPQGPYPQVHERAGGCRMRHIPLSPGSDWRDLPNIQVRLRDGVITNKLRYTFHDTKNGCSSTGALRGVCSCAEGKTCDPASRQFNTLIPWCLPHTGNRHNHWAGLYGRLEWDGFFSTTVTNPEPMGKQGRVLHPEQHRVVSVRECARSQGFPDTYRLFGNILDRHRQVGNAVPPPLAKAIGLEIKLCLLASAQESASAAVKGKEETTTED

Test [1] concerns the target T1, NAD-dependent deacetylase sirtuin-1 (rat (endogenous in INS-1E)).
T1 sequence: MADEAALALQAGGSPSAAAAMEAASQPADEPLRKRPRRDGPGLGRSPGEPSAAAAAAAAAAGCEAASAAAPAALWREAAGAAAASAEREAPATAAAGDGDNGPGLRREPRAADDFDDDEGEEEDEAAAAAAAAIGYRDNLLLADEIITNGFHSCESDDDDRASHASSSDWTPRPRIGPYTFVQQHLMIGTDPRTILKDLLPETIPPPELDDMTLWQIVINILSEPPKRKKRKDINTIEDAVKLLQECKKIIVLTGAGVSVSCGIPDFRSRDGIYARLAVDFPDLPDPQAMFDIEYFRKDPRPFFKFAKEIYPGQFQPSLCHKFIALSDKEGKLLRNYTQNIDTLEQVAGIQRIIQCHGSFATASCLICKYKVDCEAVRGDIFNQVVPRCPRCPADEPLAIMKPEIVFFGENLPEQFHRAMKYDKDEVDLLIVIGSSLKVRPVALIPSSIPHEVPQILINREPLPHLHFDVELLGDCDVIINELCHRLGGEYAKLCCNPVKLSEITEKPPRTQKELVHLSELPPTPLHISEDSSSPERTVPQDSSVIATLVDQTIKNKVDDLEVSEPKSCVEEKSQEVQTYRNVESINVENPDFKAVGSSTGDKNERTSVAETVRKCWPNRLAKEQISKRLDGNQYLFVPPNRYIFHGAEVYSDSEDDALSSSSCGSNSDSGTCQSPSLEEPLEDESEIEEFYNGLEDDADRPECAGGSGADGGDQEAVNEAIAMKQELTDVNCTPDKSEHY
Kind of test: co-IP; whole INS-1E cell lysates (500 ug protein; 20 mM Tris pH 8.0, 75 mM NaCl, 15 mM MgCl2, 1 mM EDTA, 0.5% Nonidet P-40, 10% glycerol) incubated overnight at 4 °C with protein A/G PLUS-agarose beads and 1 ug of SIRT1 or DNMT1 antibody or IgG alone; six washes; Western blot; for the anti-DNMT1 precipitates cells were untreated or treated with the SCD1 inhibitor and palmitate (16:0). A general note: Immunoblotting shows a protein as a band on a membrane.

The target of test [2] is DNA methyltransferase 1 (rat (endogenous in INS-1E)) (UniProt Q9Z330). The test is described as above.

No constants are given. Whether binding was seen depends on the method and setting. In cells and extracts the contact can be indirect. Some binding calls cover weakened binding; strength is not graded here.

Take “DNA methyltransferase 1 (from UniProt Q9Z330 1-1622)”: the binding entry in test [1] was “binds”.

B1: NAD-dependent deacetylase sirtuin-1 (protein, UniProt A0A0G2JZ79 1-741)
chain: MADEAALALQAGGSPSAAAAMEAASQPADEPLRKRPRRDGPGLGRSPGEPSAAAAAAAAAAGCEAASAAAPAALWREAAGAAAASAEREAPATAAAGDGDNGPGLRREPRAADDFDDDEGEEEDEAAAAAAAAIGYRDNLLLADEIITNGFHSCESDDDDRASHASSSDWTPRPRIGPYTFVQQHLMIGTDPRTILKDLLPETIPPPELDDMTLWQIVINILSEPPKRKKRKDINTIEDAVKLLQECKKIIVLTGAGVSVSCGIPDFRSRDGIYARLAVDFPDLPDPQAMFDIEYFRKDPRPFFKFAKEIYPGQFQPSLCHKFIALSDKEGKLLRNYTQNIDTLEQVAGIQRIIQCHGSFATASCLICKYKVDCEAVRGDIFNQVVPRCPRCPADEPLAIMKPEIVFFGENLPEQFHRAMKYDKDEVDLLIVIGSSLKVRPVALIPSSIPHEVPQILINREPLPHLHFDVELLGDCDVIINELCHRLGGEYAKLCCNPVKLSEITEKPPRTQKELVHLSELPPTPLHISEDSSSPERTVPQDSSVIATLVDQTIKNKVDDLEVSEPKSCVEEKSQEVQTYRNVESINVENPDFKAVGSSTGDKNERTSVAETVRKCWPNRLAKEQISKRLDGNQYLFVPPNRYIFHGAEVYSDSEDDALSSSSCGSNSDSGTCQSPSLEEPLEDESEIEEFYNGLEDDADRPECAGGSGADGGDQEAVNEAIAMKQELTDVNCTPDKSEHY
In the case of B1, the binding entry in test [2] is given as “binds”.
